From the supplement of paper PMC12067093, “Discovery and optimisation of a covalent ligand for TRIM25 and its application to targeted protein ubiquitination” (Chemical Science, 2025)
The other results are listed elsewhere or left out.

Protein sequences, listed by entry. Tags and fused reporters are not part of them. Lines headed by an entry give the natural chain unless they say otherwise; changes in a name come on top.
UniProt O75592: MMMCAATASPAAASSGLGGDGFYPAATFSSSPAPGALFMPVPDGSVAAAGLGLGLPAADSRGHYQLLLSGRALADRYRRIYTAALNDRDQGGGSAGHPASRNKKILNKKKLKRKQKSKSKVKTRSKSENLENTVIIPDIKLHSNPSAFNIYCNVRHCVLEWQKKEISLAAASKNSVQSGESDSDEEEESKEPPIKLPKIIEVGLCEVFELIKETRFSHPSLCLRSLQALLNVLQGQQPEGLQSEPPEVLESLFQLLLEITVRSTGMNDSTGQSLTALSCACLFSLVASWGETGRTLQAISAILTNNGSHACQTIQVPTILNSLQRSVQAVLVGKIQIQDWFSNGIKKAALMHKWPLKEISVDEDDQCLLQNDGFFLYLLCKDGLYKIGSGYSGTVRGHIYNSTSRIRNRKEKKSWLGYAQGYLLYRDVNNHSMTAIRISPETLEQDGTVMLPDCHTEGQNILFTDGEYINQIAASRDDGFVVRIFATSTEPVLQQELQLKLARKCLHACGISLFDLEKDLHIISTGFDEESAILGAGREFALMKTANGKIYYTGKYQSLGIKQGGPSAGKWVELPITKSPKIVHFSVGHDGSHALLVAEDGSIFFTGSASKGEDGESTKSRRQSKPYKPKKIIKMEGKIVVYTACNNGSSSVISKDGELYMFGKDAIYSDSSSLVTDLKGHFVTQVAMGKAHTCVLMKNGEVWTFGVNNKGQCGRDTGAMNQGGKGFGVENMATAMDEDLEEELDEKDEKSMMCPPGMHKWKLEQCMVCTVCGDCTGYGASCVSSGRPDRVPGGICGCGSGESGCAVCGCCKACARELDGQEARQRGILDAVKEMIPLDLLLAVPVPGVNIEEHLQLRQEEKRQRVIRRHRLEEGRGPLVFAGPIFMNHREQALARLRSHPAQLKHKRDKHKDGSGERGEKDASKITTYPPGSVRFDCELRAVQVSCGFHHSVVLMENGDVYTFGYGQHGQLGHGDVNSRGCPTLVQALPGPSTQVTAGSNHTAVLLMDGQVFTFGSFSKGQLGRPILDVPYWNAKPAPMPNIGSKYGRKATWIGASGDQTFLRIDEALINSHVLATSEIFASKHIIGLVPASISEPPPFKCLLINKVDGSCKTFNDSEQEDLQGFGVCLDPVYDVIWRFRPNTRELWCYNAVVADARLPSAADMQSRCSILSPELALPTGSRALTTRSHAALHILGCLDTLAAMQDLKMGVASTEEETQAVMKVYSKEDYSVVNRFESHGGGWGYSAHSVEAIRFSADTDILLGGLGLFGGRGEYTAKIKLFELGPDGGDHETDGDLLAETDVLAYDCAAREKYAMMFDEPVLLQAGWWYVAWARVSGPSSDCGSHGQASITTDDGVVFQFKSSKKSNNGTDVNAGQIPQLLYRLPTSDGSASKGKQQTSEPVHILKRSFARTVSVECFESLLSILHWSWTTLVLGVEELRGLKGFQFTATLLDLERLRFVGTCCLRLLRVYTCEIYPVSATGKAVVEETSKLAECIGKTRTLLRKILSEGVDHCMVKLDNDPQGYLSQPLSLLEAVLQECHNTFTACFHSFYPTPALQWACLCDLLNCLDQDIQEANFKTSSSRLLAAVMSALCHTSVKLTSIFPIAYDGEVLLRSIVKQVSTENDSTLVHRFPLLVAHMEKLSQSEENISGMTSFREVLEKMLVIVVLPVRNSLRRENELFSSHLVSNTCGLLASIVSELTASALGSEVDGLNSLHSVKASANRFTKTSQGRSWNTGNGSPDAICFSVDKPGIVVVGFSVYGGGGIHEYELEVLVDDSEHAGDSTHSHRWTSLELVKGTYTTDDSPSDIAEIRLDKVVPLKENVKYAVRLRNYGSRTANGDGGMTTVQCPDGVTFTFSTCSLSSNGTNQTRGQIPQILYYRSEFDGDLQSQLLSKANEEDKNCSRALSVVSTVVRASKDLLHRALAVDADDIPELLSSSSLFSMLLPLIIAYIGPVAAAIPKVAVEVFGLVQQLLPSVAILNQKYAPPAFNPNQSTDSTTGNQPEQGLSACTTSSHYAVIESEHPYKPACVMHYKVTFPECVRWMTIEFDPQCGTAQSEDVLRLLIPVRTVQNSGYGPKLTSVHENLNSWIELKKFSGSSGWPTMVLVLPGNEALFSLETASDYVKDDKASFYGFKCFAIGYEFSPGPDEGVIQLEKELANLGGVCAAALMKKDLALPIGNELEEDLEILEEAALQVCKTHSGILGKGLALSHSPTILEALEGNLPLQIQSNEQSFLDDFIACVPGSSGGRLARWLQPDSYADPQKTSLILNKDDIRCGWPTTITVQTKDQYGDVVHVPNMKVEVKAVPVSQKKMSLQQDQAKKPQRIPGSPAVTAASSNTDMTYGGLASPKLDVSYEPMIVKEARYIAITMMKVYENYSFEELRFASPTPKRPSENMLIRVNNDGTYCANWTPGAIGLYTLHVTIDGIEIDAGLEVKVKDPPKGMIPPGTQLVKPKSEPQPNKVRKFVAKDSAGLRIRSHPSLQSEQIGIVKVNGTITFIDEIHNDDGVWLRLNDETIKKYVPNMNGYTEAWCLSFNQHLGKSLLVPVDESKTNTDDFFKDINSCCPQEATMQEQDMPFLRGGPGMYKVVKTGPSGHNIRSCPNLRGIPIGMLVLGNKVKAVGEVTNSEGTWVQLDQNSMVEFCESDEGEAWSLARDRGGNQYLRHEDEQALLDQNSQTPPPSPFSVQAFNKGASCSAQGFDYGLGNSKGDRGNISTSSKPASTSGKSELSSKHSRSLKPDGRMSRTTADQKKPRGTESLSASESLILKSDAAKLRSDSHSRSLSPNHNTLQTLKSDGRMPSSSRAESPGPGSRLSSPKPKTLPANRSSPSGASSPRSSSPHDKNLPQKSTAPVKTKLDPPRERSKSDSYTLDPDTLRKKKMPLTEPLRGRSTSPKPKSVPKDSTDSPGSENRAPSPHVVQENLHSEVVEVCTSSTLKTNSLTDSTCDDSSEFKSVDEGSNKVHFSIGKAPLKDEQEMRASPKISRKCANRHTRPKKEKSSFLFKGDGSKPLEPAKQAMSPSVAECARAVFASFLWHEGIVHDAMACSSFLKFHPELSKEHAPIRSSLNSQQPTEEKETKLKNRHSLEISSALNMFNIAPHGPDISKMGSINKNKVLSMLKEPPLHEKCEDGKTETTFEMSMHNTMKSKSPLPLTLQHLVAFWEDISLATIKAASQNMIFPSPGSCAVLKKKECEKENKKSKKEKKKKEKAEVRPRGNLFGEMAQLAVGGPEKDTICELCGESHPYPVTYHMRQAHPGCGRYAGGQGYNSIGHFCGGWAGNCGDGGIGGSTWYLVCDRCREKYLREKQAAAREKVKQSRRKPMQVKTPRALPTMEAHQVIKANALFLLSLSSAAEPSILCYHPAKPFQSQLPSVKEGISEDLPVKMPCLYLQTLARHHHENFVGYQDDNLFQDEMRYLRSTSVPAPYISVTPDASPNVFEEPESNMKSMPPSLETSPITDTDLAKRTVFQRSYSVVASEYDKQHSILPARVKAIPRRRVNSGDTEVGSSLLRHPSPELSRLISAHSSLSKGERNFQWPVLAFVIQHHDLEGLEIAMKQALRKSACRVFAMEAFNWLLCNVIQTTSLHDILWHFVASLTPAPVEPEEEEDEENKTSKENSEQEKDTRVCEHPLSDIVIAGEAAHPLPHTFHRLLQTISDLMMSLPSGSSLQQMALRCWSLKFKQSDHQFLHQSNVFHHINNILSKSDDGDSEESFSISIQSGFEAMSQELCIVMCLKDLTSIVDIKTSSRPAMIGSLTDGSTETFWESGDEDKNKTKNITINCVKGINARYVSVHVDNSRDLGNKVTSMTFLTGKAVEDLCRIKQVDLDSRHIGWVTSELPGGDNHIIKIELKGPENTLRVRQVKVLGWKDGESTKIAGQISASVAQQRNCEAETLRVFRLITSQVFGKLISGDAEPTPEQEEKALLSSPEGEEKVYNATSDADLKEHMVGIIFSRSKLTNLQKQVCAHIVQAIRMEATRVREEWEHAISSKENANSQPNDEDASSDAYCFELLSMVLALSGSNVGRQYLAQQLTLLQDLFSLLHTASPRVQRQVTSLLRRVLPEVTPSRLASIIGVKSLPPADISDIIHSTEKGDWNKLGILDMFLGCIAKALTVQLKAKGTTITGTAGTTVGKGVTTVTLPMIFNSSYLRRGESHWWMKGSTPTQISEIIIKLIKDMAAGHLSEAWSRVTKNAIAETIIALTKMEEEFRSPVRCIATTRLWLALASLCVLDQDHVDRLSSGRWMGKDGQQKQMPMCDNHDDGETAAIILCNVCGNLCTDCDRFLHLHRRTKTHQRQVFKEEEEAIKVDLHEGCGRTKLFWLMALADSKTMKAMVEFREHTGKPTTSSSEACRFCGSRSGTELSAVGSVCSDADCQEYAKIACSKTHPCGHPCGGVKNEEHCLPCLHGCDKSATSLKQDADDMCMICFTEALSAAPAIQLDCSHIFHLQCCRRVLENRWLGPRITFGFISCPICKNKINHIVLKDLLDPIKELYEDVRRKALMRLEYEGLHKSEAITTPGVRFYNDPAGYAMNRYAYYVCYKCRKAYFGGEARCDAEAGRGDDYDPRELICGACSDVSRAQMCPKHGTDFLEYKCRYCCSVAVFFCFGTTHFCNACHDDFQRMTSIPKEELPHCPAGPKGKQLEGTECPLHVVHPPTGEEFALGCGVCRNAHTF
UniProt Q9Y6C9: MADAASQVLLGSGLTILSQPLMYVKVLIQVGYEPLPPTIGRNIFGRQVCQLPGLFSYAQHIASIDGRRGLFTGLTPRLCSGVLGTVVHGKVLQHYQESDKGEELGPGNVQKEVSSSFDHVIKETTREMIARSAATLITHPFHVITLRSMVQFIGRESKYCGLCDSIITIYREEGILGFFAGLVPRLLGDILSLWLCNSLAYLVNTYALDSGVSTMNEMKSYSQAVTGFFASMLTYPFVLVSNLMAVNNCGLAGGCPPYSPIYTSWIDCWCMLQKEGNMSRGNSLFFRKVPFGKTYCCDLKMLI
UniProt O75431: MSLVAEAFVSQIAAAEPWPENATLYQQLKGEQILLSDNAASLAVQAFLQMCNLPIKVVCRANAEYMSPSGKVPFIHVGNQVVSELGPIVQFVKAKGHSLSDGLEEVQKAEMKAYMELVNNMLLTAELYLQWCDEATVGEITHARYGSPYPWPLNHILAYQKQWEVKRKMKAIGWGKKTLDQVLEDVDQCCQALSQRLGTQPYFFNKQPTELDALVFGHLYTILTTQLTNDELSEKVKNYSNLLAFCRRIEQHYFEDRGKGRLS
UniProt Q9NVV4: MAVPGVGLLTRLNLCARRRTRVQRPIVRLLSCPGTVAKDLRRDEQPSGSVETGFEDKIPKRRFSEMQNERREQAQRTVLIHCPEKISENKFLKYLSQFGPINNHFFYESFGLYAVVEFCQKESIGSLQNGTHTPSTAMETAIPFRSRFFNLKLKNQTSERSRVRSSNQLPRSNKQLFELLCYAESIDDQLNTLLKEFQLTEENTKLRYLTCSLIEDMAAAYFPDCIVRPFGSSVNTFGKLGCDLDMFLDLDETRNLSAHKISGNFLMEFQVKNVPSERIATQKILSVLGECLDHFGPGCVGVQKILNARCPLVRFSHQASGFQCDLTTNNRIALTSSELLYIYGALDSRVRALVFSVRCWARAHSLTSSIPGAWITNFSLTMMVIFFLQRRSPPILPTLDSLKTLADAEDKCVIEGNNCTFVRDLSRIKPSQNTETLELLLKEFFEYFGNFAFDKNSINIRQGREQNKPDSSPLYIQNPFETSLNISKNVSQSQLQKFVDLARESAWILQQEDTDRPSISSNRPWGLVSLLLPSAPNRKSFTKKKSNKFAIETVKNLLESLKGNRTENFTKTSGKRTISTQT
UniProt P10242: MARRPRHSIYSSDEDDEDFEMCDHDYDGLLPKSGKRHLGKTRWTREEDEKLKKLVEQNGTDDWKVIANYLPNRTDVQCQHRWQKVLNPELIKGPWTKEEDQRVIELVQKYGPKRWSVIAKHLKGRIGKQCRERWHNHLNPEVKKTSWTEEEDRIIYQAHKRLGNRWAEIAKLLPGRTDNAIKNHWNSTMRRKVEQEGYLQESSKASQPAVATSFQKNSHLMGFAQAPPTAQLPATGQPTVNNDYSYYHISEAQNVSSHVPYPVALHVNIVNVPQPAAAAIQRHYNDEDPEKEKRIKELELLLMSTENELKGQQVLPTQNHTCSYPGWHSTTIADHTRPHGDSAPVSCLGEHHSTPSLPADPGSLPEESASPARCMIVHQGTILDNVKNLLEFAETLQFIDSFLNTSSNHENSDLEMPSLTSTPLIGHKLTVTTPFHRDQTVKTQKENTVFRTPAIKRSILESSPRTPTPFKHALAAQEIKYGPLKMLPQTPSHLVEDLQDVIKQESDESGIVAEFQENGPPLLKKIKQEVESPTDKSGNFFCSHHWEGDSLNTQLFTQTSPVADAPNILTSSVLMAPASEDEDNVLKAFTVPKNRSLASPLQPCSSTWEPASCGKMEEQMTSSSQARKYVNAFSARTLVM
UniProt P58546, whole entry, looked up: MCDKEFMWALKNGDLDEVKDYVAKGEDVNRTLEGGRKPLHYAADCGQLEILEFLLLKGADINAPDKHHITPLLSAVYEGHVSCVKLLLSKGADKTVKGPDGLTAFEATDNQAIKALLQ

Compound: Cc1cc(ccc1-c1ccccc1)C(=O)N1CCCN(CC1)C(=O)CCl [compound 10]
Assay: probe-labelled cysteine peptide fold change vs DMSO (competition) (log2 fold change); higher = less target engagement (more negative = stronger competition)
Details: THP-1, incubation time: 4 h
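Also: competitive profiling in live THP-1 cells: cysteine peptides tagged with an iodoacetamide desthiobiotin (IA-DTB) probe, intensity after compound treatment relative to DMSO-treated cells.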

| Target | probe-labelled cysteine peptide fold change (10 µM) | probe-labelled cysteine peptide fold change (50 µM) |
| --- | --- | --- |
| MTHFD2_P13995_145_ICNAVSPDK (UniProt P13995) | -0.00299 | -0.0517 |
| MSH6_P52701_1158_QAGLLAVMAQMGCYVPAEVCR (UniProt P52701) | -0.0653 | 0.217 |
| MYCBP2_O75592_4356_EHTGKPTTSSSEACR (UniProt O75592) | -0.0507 | -0.406 |
| MYCBP2_O75592_4544_YAYYVCYK (UniProt O75592) | -0.0266 | -0.193 |
| MTMR2_Q13614_284_CSQPMVGVSGK (UniProt Q13614) | -0.00239 | -0.224 |
| MTCH2_Q9Y6C9_49_QVCQLPGLFSYAQHIASIDGR (UniProt Q9Y6C9) | -0.0446 | 0.0916 |
| MSH3_P20585_274_ELNIYCHLDHNFMTASIPTHR (UniProt P20585) | -0.0498 | 0.018 |
| MTM1_Q13496_53_EVIYICPFNGPIK (UniProt Q13496) | -0.0979 | -0.467 |
| MTF2_Q9Y483_220_MLQCCK (UniProt Q9Y483) | -0.0988 | -0.354 |
| MSH6_P52701_426_SQNFDLVICYK (UniProt P52701) | -0.258 | 0.619 |
| MVD_P53602_267_DSNQFHATCLDTFPPISYLNAISWR (UniProt P53602) | -0.508 | 0.125 |
| MTHFSD_Q2M296_215_VIATGCK (UniProt Q2M296) | -0.0424 | 0.289 |
| MTCH2_Q9Y6C9_49_QVCQLPGLFSYAQHIASIDGRR (UniProt Q9Y6C9) | -0.229 | -0.382 |
| MYH9_P35579_917_KQELEEICHDLEARVEEEEER (UniProt P35579) | -0.258 | -0.451 |
| MTOR_P42345_1214_YDVLICR (UniProt P42345) | 0.0717 | -0.186 |
| MRPS34_P82930_93_SWLWQHDEPCYWR (UniProt P82930) | 0.00309 | 0.0608 |
| MTOR_P42345_1999_NMCEHSNTLVQQAMMVSEELIR (UniProt P42345) | 0.0665 | -0.189 |
| MSH3_P20585_803_EQLVLDCSAEWLDFLEK (UniProt P20585) | 0.167 | 0.31 |
| MRTO4_Q9UKD2_176_RGVVTLLSDYEVCK (UniProt Q9UKD2) | -0.0117 | 0.261 |
| MVP_Q14764_515_ALCLLLGPDFFTDVITIETADHAR (UniProt Q14764) | 0.504 | 0.821 |
| MSH2_P43246_404_QAANLQDCYR (UniProt P43246) | 0.064 | 0.0941 |

| Target | probe-labelled cysteine peptide fold change (10 µM) | probe-labelled cysteine peptide fold change (50 µM) |
| --- | --- | --- |
| MSTO1_Q9BUK6_411_CFAQSVVLR (UniProt Q9BUK6) | 0.0387 | 0.114 |
| MTMR3_Q13615_151_EQHGDLCRPGEHVTSR (UniProt Q13615) | -0.109 | 0.264 |
| MTR_Q99707_798_NIVGVVLGCNNFR (UniProt Q99707) | 0.00546 | -0.26 |
| MRPS27_Q92552_101_HSPNCWYLR (UniProt Q92552) | -0.0636 | 0.0342 |
| MTSS1L_Q765P7_8_ECGALGGLFQAIVNDMK (UniProt Q765P7) | -0.144 | -0.0778 |
| MRPS18A_Q9NVS2_108_KITGLCQEEHR (UniProt Q9NVS2) | -0.0907 | 0.092 |
| MSH6_P52701_559_AYGVCFVDTSLGK (UniProt P52701) | 0.0183 | -0.0198 |
| MTMR1_Q13613_507_VGHGNDNHADADRSPIFLQFVDCVWQMTR (UniProt Q13613) | 0.254 | 0.382 |
| MSH6_P52701_579_FFIGQFSDDRHCSR (UniProt P52701) | -0.125 | -0.00295 |
| MYADM_Q96S97_279_DVSCSR (UniProt Q96S97) | -0.0569 | -0.0282 |
| MYCBP2_O75592_3824_AVEDLCR (UniProt O75592) | -0.108 | -0.175 |
| MYCBP2_O75592_2569+2570_DINSCCPQEATMQEQDMPFLR (UniProt O75592) | -0.467 | -0.7 |
| MTFMT_Q96DP5_365_NSQAQPSQCR (UniProt Q96DP5) | -0.186 | -0.202 |
| MTRF1_O75570_335_LVHIPTGLVVECQQER (UniProt O75570) | -0.125 | -0.305 |
| MRRF_Q96E11_154_SPQLILVNMASFPECTAAAIK (UniProt Q96E11) | -0.164 | -0.103 |
| MYH9_P35579_988_KLEEEQIILEDQNCK (UniProt P35579) | -0.0561 | -0.0225 |
| MTA2_O94776_261_AMSTLVPQGGPVLCRDEMEEWSASEAMLFEEALEK (UniProt O94776) | -0.0889 | -0.0826 |
| MVB12A_Q96EY5_90_SPLPLGFSPVCDPMDSK (UniProt Q96EY5) | -0.183 | -0.186 |
| MTHFD1L_Q6UB35_778_EYTEENIQLVADGCCNLQK (UniProt Q6UB35) | -0.00955 | -0.38 |
| MYEF2_Q9P2K5_546_FSQCGHVMFAEIK (UniProt Q9P2K5) | 0.135 | -0.0725 |
| MTX2_O75431_189_TLDQVLEDVDQCCQALSQR (UniProt O75431) | -0.0127 | -0.0536 |

| Target | probe-labelled cysteine peptide fold change (10 µM) | probe-labelled cysteine peptide fold change (50 µM) |
| --- | --- | --- |
| MYCBP2_O75592_3392_MPCLYLQTLAR (UniProt O75592) | -0.0844 | -0.345 |
| MTERF3_Q96E29_399_LVSIPDEIFCEEIAK (UniProt Q96E29) | -0.0337 | -0.21 |
| MRPS18C_Q9Y3D5_100_HITGLCGK (UniProt Q9Y3D5) | 0.0835 | -0.0765 |
| MTMR1_Q13613_438_TSVVVHCSDGWDR (UniProt Q13613) | 0.391 | 0.434 |
| MSH2_P43246_176_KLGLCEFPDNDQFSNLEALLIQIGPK (UniProt P43246) | -0.0909 | -0.00623 |
| MYH9_P35579_1379_KMEDSVGCLETAEEVK (UniProt P35579) | 0.118 | 0.13 |
| MSH6_P52701_1129_AYCVLVTGPNMGGK (UniProt P52701) | -0.166 | -0.274 |
| MUT_P22033_540_CLAALTECAASGDGNILALAVDASR (UniProt P22033) | 0.148 | 0.111 |
| MYCBP2_O75592_3632_VCEHPLSDIVIAGEAAHPLPHTFHR (UniProt O75592) | -0.091 | 0.184 |
| MSTO1_Q9BUK6_232_LHFYVEECDYLQGFQILCDLHDGFSGVGAK (UniProt Q9BUK6) | 0.444 | 1.33 |
| MTG2_Q9H4K7_175_VVADLSCVGDEYIAALGGAGGK (UniProt Q9H4K7) | -0.145 | -0.217 |
| MTA2_O94776_106_CSVTLLNETDILSQYLEK (UniProt O94776) | 0.183 | 0.107 |
| MTM1_Q13496_444_NHTDADRSPIFLQFIDCVWQMSK (UniProt Q13496) | 0.108 | 0.0969 |
| MRPS28_Q9Y2Q9_122+124_FHCVCR (UniProt Q9Y2Q9) | 0.137 | -0.442 |
| MYBBP1A_Q9BQG0_968_AGTDPSHMPTGPQAASCLDLNLVTR (UniProt Q9BQG0) | -0.306 | -0.421 |
| MYCBP2_O75592_4233_LWLALASLCVLDQDHVDR (UniProt O75592) | -0.434 | -0.331 |
| MTX2_O75431_246_NYSNLLAFCR (UniProt O75431) | -0.0151 | 0.197 |
| MYCBP2_O75592_4318_VDLHEGCGR (UniProt O75592) | 0.12 | 0.319 |
| MYBBP1A_Q9BQG0_884_IFTHHLCR (UniProt Q9BQG0) | 0.036 | 0.0211 |
| MTPAP_Q9NVV4_299_ILSVLGECLDHFGPGCVGVQK (UniProt Q9NVV4) | 0.106 | -0.0477 |
| MTA1_Q13330_281_AISALVPQGGPVLCRDEMEEWSASEANLFEEALEK (UniProt Q13330) | -0.0152 | -0.00106 |

| Target | probe-labelled cysteine peptide fold change (10 µM) | probe-labelled cysteine peptide fold change (50 µM) |
| --- | --- | --- |
| MYCBP2_O75592_4558_CDAEAGRGDDYDPR (UniProt O75592) | 0.032 | -0.332 |
| MTIF2_P46199_646_KKVPVAGCR (UniProt P46199) | 0.132 | -0.272 |
| MYB_P10242_374_CMIVHQGTILDNVK (UniProt P10242) | 0.0649 | -0.298 |
| MYBBP1A_Q9BQG0_338_HYGEHVCTAK (UniProt Q9BQG0) | 0.0441 | 0.083 |
| MTHFD1_P11586_195_IVGAPMHDLLLWNNATVTTCHSK (UniProt P11586) | -0.026 | -0.278 |
| MTPAP_Q9NVV4_412+419_CVIEGNNCTFVR (UniProt Q9NVV4) | -0.117 | -0.121 |
| MYCBP2_O75592_505_CLHACGISLFDLEK (UniProt O75592) | 0.122 | 0.236 |
| MTRF1L_Q9UGC7_103_LAENEITLCQK (UniProt Q9UGC7) | 0.121 | 0.0615 |
| MTHFSD_Q2M296_184_ETPVVTIVHDCQVVDIPEELVEEHDITVDYILTPTR (UniProt Q2M296) | 0.15 | 0.695 |
| MYO18A_Q92614_1046_LHFVHCFLPVAEGWAGEPR (UniProt Q92614) | 0.205 | 0.269 |
| MTPN_P58546_45_TLEGGRKPLHYAADCGQLEILEFLLLK (UniProt P58546) | -0.208 | -0.612 |
| MYH9_P35579_917_KQELEEICHDLEAR (UniProt P35579) | -0.0457 | 0.109 |
| MTMR3_Q13615_473_CPVFLQWLDCVHQLQR (UniProt Q13615) | -0.0651 | 0.044 |
| MRPS28_Q9Y2Q9_124_FHCVCR (UniProt Q9Y2Q9) | 0.163 | -0.266 |
| MTMR12_Q9C0I1_694_HHSQQAPQAEAPCLLR (UniProt Q9C0I1) | 0.0393 | -0.559 |
| MTA1_Q13330_68_HATLSVCYK (UniProt Q13330) | 0.127 | -0.265 |
| MYBBP1A_Q9BQG0_942_GNTAEGCVHETQEK (UniProt Q9BQG0) | -0.17 | -0.151 |
| MTG1_Q9BT17_51_LVDCIIEVHDAR (UniProt Q9BT17) | 0.0252 | 0.0322 |
| MTREX_P42285_430_KMVEEVFSNAIDCLSDEDK (UniProt P42285) | -0.306 | -0.485 |
| MSRB2_Q9Y3D2_149_QCEAHLGHVFPDGPGPNGQR (UniProt Q9Y3D2) | -0.273 | -0.593 |

Six records picked at random from those above:

| Target | probe-labelled cysteine peptide fold change (10 µM) | probe-labelled cysteine peptide fold change (50 µM) |
| --- | --- | --- |
| MTPAP_Q9NVV4_412+419_CVIEGNNCTFVR (UniProt Q9NVV4) | -0.117 | -0.121 |
| MTREX_P42285_430_KMVEEVFSNAIDCLSDEDK (UniProt P42285) | -0.306 | -0.485 |
| MYB_P10242_374_CMIVHQGTILDNVK (UniProt P10242) | 0.0649 | -0.298 |
| MTPN_P58546_45_TLEGGRKPLHYAADCGQLEILEFLLLK (UniProt P58546) | -0.208 | -0.612 |
| MYCBP2_O75592_4558_CDAEAGRGDDYDPR (UniProt O75592) | 0.032 | -0.332 |
| MTHFSD_Q2M296_184_ETPVVTIVHDCQVVDIPEELVEEHDITVDYILTPTR (UniProt Q2M296) | 0.15 | 0.695 |
